Patent publication US20040161798A1
No constants are given. Whether binding was seen depends on the method and setting. Some binding calls cover weakened binding; strength is not graded here. Tags and fused reporters may be left off the sequences shown.

Assays:
GST-Pre1 [1] = biological target: T1, GST-Pre1 (UniProt P22141); assay: dilution assay on TentaGel beads, Western blot
T1 sequence (looked up): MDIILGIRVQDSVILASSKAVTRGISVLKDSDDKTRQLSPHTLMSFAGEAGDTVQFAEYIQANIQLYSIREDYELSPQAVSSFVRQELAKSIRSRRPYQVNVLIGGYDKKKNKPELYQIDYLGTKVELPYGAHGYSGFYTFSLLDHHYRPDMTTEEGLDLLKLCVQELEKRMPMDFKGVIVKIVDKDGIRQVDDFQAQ

GST-Pre1 [2] = biological target: T1, GST-Pre1; assay: protein retained on TentaGel beads with scrambled peptide, Western blot

Binder	binding (GST-Pre1 [1])	binding (GST-Pre1 [2])
SHSTARGEQERAAVYLWFTYDHRSER (attached to TentaGel resin in the bead assays) [Pre1bp]	binds	
SEFARDLAYGEYSQHVRWTHERATSR (attached to TentaGel resin in the bead assays) [Pre1bpscram]		binds
